Some of the results follow.
What was measured:
Assay in all cases: glycan array binding signal (z-score within array); higher = stronger binding
Conditions in all cases: glycan notation: IUPAC condensed, linker removed
[1] = biological target: GlcNAc(a1-3)Gal(b1-4)GlcNAc
Procedure, shortened: (§1)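 Glycan array data were curated from 3228 arrays in the Consortium for Functional Glycomics database and kept only where the protein sequence was available. Glycan names were converted to IUPAC-condensed notation, and columns mapping to the same glycan were averaged. The binding signal is a within-array Z-score, averaged across arrays of the same protein sequence at different concentrations or buffers and across linkers. Negative Z-scores can be read as non-binding.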

[2] = biological target: GlcNAc(a1-4)Gal(b1-3)GlcNAc
Procedure, shortened: as §1

[3] = biological target: GlcNAc(a1-4)Gal(b1-4)GalNAc
Procedure, shortened: as §1

[4] = biological target: GlcNAc(a1-4)Gal(b1-4)GlcNAc
Procedure, shortened: as §1

[5] = biological target: GlcNAc(a1-4)Gal(b1-4)GlcNAc(b1-3)Gal(b1-4)Glc
Procedure, shortened: as §1

[6] = biological target: GlcNAc(a1-4)Gal(b1-4)GlcNAc(b1-3)Gal(b1-4)GlcNAc
Procedure, shortened: as §1

[7] = biological target: GlcNAc(a1-4)Gal(b1-4)GlcNAc(b1-3)Gal(b1-4)GlcNAc(b1-3)Gal(b1-4)GlcNAc
Procedure, shortened: as §1

[8] = biological target: GlcNAc(a1-4)Gal(b1-4)GlcNAc(b1-3)Gal(b1-4)[Fuc(a1-3)]GlcNAc(b1-3)Gal(b1-4)[Fuc(a1-3)]GlcNAc
Procedure, shortened: as §1

[9] = biological target: GlcNAc(a1-6)Gal(b1-4)GlcNAc
Procedure, shortened: as §1

[10] = biological target: GlcNAc(b1-2)Gal(b1-3)GalNAc
Procedure, shortened: as §1

[11] = biological target: GlcNAc(b1-2)Man(a1-3)[GlcNAc(b1-2)Man(a1-6)]Man(b1-4)GlcNAc(b1-4)GlcNAc
Procedure, shortened: as §1

[12] = biological target: GlcNAc(b1-2)Man(a1-3)[GlcNAc(b1-2)Man(a1-6)]Man(b1-4)GlcNAc(b1-4)[Fuc(a1-6)]GlcNAc
Procedure, shortened: as §1

[13] = biological target: GlcNAc(b1-2)Man(a1-3)[GlcNAc(b1-4)][GlcNAc(b1-2)Man(a1-6)]Man(b1-4)GlcNAc(b1-4)GlcNAc
Procedure, shortened: as §1

[14] = biological target: GlcNAc(b1-2)Man(a1-3)[GlcNAc(b1-4)][GlcNAc(b1-2)Man(a1-6)]Man(b1-4)GlcNAc(b1-4)[Fuc(a1-6)]GlcNAc
Procedure, shortened: as §1

[15] = biological target: GlcNAc(b1-2)[GlcNAc(b1-4)]Man(a1-3)[GlcNAc(b1-2)Man(a1-6)]Man(b1-4)GlcNAc(b1-4)GlcNAc
Procedure, shortened: as §1

[16] = biological target: GlcNAc(b1-2)[GlcNAc(b1-4)]Man(a1-3)[GlcNAc(b1-4)][GlcNAc(b1-2)Man(a1-6)]Man(b1-4)GlcNAc(b1-4)GlcNAc
Procedure, shortened: as §1

[17] = biological target: GlcNAc(b1-2)[GlcNAc(b1-4)]Man(a1-3)[GlcNAc(b1-4)][GlcNAc(b1-2)[GlcNAc(b1-6)]Man(a1-6)]Man(b1-4)GlcNAc(b1-4)GlcNAc
Procedure, shortened: as §1

[18] = biological target: GlcNAc(b1-2)[GlcNAc(b1-4)]Man(a1-3)[GlcNAc(b1-4)][GlcNAc(b1-2)[GlcNAc(b1-6)]Man(a1-6)]Man(b1-4)GlcNAc(b1-4)[Fuc(a1-6)]GlcNAc
Procedure, shortened: as §1

[19] = biological target: GlcNAc(b1-2)[GlcNAc(b1-6)]Man(a1-6)[GlcNAc(b1-2)Man(a1-3)]Man(b1-4)GlcNAc(b1-4)GlcNAc
Procedure, shortened: as §1

[20] = biological target: GlcNAc(b1-2)[GlcNAc(b1-6)]Man(a1-6)[GlcNAc(b1-2)Man(a1-3)]Man(b1-4)GlcNAc(b1-4)[Fuc(a1-6)]GlcNAc
Procedure, shortened: as §1

[21] = biological target: GlcNAc(b1-2)[GlcNAc(b1-6)]Man(a1-6)[GlcNAc(b1-4)][GlcNAc(b1-2)Man(a1-3)]Man(b1-4)GlcNAc(b1-4)GlcNAc
Procedure, shortened: as §1

GlcNAc(b1-3)Fuc = biological target: GlcNAc(b1-3)Fuc
Procedure, shortened: as §1

GlcNAc(b1-3)Gal = biological target: GlcNAc(b1-3)Gal
Procedure, shortened: as §1

[22] = biological target: GlcNAc(b1-3)Gal(b1-3)GalNAc
Procedure, shortened: as §1

GlcNAc(b1-3)Gal(b1-4)Glc = biological target: GlcNAc(b1-3)Gal(b1-4)Glc
Procedure, shortened: as §1

[23] = biological target: GlcNAc(b1-3)Gal(b1-4)GlcNAc
Procedure, shortened: as §1

[24] = biological target: GlcNAc(b1-3)Gal(b1-4)GlcNAc(b1-2)Man(a1-3)[GlcNAc(b1-3)Gal(b1-4)GlcNAc(b1-2)Man(a1-6)]Man(b1-4)GlcNAc(b1-4)GlcNAc
Procedure, shortened: as §1

[25] = biological target: GlcNAc(b1-3)Gal(b1-4)GlcNAc(b1-2)Man(a1-3)[GlcNAc(b1-3)Gal(b1-4)GlcNAc(b1-2)Man(a1-6)]Man(b1-4)GlcNAc(b1-4)[Fuc(a1-6)]GlcNAc
Procedure, shortened: as §1

[26] = biological target: GlcNAc(b1-3)Gal(b1-4)GlcNAc(b1-2)[GlcNAc(b1-3)Gal(b1-4)GlcNAc(b1-6)]Man(a1-6)[GlcNAc(b1-3)Gal(b1-4)GlcNAc(b1-2)Man(a1-3)]Man(b1-4)GlcNAc(b1-4)GlcNAc
Procedure, shortened: as §1

[27] = biological target: GlcNAc(b1-3)Gal(b1-4)GlcNAc(b1-3)Gal(b1-4)GlcNAc
Procedure, shortened: as §1

[28] = biological target: GlcNAc(b1-3)Gal(b1-4)GlcNAc(b1-3)Gal(b1-4)GlcNAc(b1-2)Man(a1-3)[GlcNAc(b1-3)Gal(b1-4)GlcNAc(b1-3)Gal(b1-4)GlcNAc(b1-2)Man(a1-6)]Man(b1-4)GlcNAc(b1-4)GlcNAc
Procedure, shortened: as §1

[29] = biological target: GlcNAc(b1-3)Gal(b1-4)GlcNAc(b1-3)Gal(b1-4)GlcNAc(b1-2)Man(a1-3)[GlcNAc(b1-3)Gal(b1-4)GlcNAc(b1-3)Gal(b1-4)GlcNAc(b1-2)Man(a1-6)]Man(b1-4)GlcNAc(b1-4)[Fuc(a1-6)]GlcNAc
Procedure, shortened: as §1

[30] = biological target: GlcNAc(b1-3)Gal(b1-4)GlcNAc(b1-3)Gal(b1-4)GlcNAc(b1-2)[GlcNAc(b1-3)Gal(b1-4)GlcNAc(b1-3)Gal(b1-4)GlcNAc(b1-6)]Man(a1-6)[GlcNAc(b1-3)Gal(b1-4)GlcNAc(b1-3)Gal(b1-4)GlcNAc(b1-2)Man(a1-3)]Man(b1-4)GlcNAc(b1-4)[Fuc(a1-6)]GlcNAc
Procedure, shortened: as §1

[31] = biological target: GlcNAc(b1-3)Gal(b1-4)GlcNAc(b1-3)Gal(b1-4)GlcNAc(b1-3)Gal(b1-4)GlcNAc(b1-2)Man(a1-3)[GlcNAc(b1-3)Gal(b1-4)GlcNAc(b1-3)Gal(b1-4)GlcNAc(b1-3)Gal(b1-4)GlcNAc(b1-2)Man(a1-6)]Man(b1-4)GlcNAc(b1-4)GlcNAc
Procedure, shortened: as §1

[32] = biological target: GlcNAc(b1-3)Gal(b1-4)GlcNAc(b1-3)Gal(b1-4)GlcNAc(b1-3)Gal(b1-4)GlcNAc(b1-2)Man(a1-3)[GlcNAc(b1-3)Gal(b1-4)GlcNAc(b1-3)Gal(b1-4)GlcNAc(b1-3)Gal(b1-4)GlcNAc(b1-2)Man(a1-6)]Man(b1-4)GlcNAc(b1-4)[Fuc(a1-6)]GlcNAc
Procedure, shortened: as §1

[33] = biological target: GlcNAc(b1-3)Gal(b1-4)GlcNAc(b1-3)Gal(b1-4)GlcNAc(b1-3)Gal(b1-4)GlcNAc(b1-2)[GlcNAc(b1-3)Gal(b1-4)GlcNAc(b1-3)Gal(b1-4)GlcNAc(b1-3)Gal(b1-4)GlcNAc(b1-6)]Man(a1-6)[GlcNAc(b1-3)Gal(b1-4)GlcNAc(b1-3)Gal(b1-4)GlcNAc(b1-3)Gal(b1-4)GlcNAc(b1-2)Man(a1-3)]Man(b1-4)GlcNAc(b1-4)[Fuc(a1-6)]GlcNAc
Procedure, shortened: as §1

[34] = biological target: GlcNAc(b1-3)Gal(b1-4)GlcNAc(b1-3)Gal(b1-4)GlcNAc(b1-3)Gal(b1-4)GlcNAc(b1-3)Gal(b1-4)GlcNAc(b1-2)Man(a1-3)[GlcNAc(b1-3)Gal(b1-4)GlcNAc(b1-3)Gal(b1-4)GlcNAc(b1-3)Gal(b1-4)GlcNAc(b1-3)Gal(b1-4)GlcNAc(b1-2)Man(a1-6)]Man(b1-4)GlcNAc(b1-4)GlcNAc
Procedure, shortened: as §1

[35] = biological target: GlcNAc(b1-3)Gal(b1-4)GlcNAc(b1-3)Gal(b1-4)GlcNAc(b1-3)Gal(b1-4)GlcNAc(b1-3)Gal(b1-4)GlcNAc(b1-2)Man(a1-3)[GlcNAc(b1-3)Gal(b1-4)GlcNAc(b1-3)Gal(b1-4)GlcNAc(b1-3)Gal(b1-4)GlcNAc(b1-3)Gal(b1-4)GlcNAc(b1-2)Man(a1-6)]Man(b1-4)GlcNAc(b1-4)[Fuc(a1-6)]GlcNAc
Procedure, shortened: as §1

B1: LlpA (Arthrobacter sp) (protein)
chain: MGSSHHHHHHSSGLVPRGSHMTLHPETALRPGAAATSPNSRYRLLYQTDGNLVLYGPDGPLWDSGTNGHGAGACIMQADGNLVLYGPNDEYVWDTETDNNPGSRLVIQDDGNAVIYRPDGSPLWATETCQPPGSADSHVLQSGSTLTPTHGIRSANGLYGLLYQTDGNLVFYGPDGPLWDSGTNGRGAGACIMQPDGNLVLYGPHDEYVWDTETDNNPGSRLVIQDDGNAVIYRPDGNPTWVTGTH
[1]
  glycan array binding signal (z-score): 0.79
[2]
  glycan array binding signal (z-score): -1.22
[3]
  glycan array binding signal (z-score): -1.04
[4]
  glycan array binding signal (z-score): -0.236
[5]
  glycan array binding signal (z-score): 0.389
[6]
  glycan array binding signal (z-score): 0.201
[7]
  glycan array binding signal (z-score): -0.479
[8]
  glycan array binding signal (z-score): 1.36
[9]
  glycan array binding signal (z-score): -0.465
[10]
  glycan array binding signal (z-score): -0.298
[11]
  glycan array binding signal (z-score): -0.164
[12]
  glycan array binding signal (z-score): 0.588
[13]
  glycan array binding signal (z-score): -0.798
[14]
  glycan array binding signal (z-score): -0.226
[15]
  glycan array binding signal (z-score): -0.068
[16]
  glycan array binding signal (z-score): 0.659
[17]
  glycan array binding signal (z-score): -0.159
[18]
  glycan array binding signal (z-score): -0.18
[19]
  glycan array binding signal (z-score): -0.029
[20]
  glycan array binding signal (z-score): 1.2
[21]
  glycan array binding signal (z-score): -0.719
GlcNAc(b1-3)Fuc
  glycan array binding signal (z-score): -0.471
GlcNAc(b1-3)Gal
  glycan array binding signal (z-score): -0.463
[22]
  glycan array binding signal (z-score): 0.347
GlcNAc(b1-3)Gal(b1-4)Glc
  glycan array binding signal (z-score): 0.123
[23]
  glycan array binding signal (z-score): 0.043
[24]
  glycan array binding signal (z-score): 0.515
[25]
  glycan array binding signal (z-score): 0.596
[26]
  glycan array binding signal (z-score): 0.019
[27]
  glycan array binding signal (z-score): -0.689
[28]
  glycan array binding signal (z-score): 0.503
[29]
  glycan array binding signal (z-score): 2.11
[30]
  glycan array binding signal (z-score): 1.02
[31]
  glycan array binding signal (z-score): 1.25
[32]
  glycan array binding signal (z-score): 1.79
[33]
  glycan array binding signal (z-score): 0.416
[34]
  glycan array binding signal (z-score): 0.815
[35]
  glycan array binding signal (z-score): 2.07
